Results as given in patent publication US11065214B1, “Combination therapies with disulfiram” (Spring Discovery, Inc., priority 2020, dated 2021).
At least one compound was matched to its structure with a doubt left.

Chains of the proteins cited; added tags and fusions are not shown. Residues count along the entry.
UniProt K9N7C7, 1552-1823 limits assumed: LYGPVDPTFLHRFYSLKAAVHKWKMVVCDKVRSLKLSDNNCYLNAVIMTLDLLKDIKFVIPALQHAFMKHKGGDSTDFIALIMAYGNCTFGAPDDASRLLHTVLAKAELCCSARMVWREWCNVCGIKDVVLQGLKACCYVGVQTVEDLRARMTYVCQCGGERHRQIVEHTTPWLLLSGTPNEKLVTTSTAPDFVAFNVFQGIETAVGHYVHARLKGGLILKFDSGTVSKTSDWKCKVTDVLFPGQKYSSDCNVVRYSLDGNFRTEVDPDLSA

How the values were obtained:
[1] = test system: lipopolysaccharide-induced septic shock; conditions: mice; cited from earlier work
[2] = target: papain-like proteases of SARS-CoV1 (Severe acute respiratory syndrome coronavirus, UniProt P0C6X7); conditions: cited from earlier work
[3] = test system: rVSV-ΔG-mCherry-infected PBMCs from older donors; format: cell-based, human
[4] = target: papain-like proteases of MERS-CoV (Middle East respiratory syndrome-related coronavirus, UniProt K9N7C7); conditions: cited from earlier work
[5] = test system: PBMCs exposed to 10×MOI rVSV; format: cell-based, human

Question: What does the source list for `CCN(CC)C(=S)SSC(=S)N(CC)CC` [disulfiram]?
Answer: protection from lethal septic shock [1]: protect mice from lethal lipopolysaccharide-induced septic shock; inhibition of papain-like protease [2]: inhibit papain-like proteases; IL-1β level in supernatant [3]: significantly decreased in at least 2 doses; IL-6 level in supernatant [3]: significantly decreased in at least 2 doses; MCP1 level in supernatant [3]: significantly decreased in at least 2 doses; TNFα level in supernatant [3]: significantly decreased in at least 2 doses; inhibition of papain-like protease [4]: inhibit papain-like proteases; apparent viral load response of infected cells [5]: made the cells appear to be responding to a lower viral load; machine learning model prediction of immune response to viral load (MOI) in monocytes [5]: monocytes responded at a lower MOI than did untreated control cells; percentage of the mitochondria with a reticular shape [5]: significantly reduced the percentage of the mitochondria with a reticular shape
